No constants are given. Whether binding was seen depends on the method and setting. Binding seen in cells or lysates may run through a third protein. Some entries that bind do so weakly or less than the wild type. For some of these results: Where a sequence is shown, tags or fusion partners need not be part of it.
T1: ORC2 (human (endogenous in HEK293, K562 and HeLa)) (UniProt Q13416)
T1 sequence: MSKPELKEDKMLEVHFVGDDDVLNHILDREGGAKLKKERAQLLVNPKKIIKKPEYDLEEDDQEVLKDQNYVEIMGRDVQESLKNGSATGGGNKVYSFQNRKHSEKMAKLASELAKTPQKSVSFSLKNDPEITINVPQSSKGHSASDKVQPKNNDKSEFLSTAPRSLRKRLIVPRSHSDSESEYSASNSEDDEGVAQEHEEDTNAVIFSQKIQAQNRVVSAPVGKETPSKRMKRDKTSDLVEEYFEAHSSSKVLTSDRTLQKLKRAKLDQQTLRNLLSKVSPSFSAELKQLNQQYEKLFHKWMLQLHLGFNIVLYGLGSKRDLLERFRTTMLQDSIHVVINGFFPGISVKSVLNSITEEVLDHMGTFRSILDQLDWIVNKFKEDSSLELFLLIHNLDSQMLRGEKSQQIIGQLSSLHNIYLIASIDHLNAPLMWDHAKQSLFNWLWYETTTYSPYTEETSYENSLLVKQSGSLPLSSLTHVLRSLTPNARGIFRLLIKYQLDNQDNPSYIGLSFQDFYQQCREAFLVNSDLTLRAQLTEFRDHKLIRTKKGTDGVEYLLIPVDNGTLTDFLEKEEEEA

T2: GNL3/nucleostemin (human (endogenous in K562 and HeLa S3)) (UniProt Q9BVP2)
T2 sequence: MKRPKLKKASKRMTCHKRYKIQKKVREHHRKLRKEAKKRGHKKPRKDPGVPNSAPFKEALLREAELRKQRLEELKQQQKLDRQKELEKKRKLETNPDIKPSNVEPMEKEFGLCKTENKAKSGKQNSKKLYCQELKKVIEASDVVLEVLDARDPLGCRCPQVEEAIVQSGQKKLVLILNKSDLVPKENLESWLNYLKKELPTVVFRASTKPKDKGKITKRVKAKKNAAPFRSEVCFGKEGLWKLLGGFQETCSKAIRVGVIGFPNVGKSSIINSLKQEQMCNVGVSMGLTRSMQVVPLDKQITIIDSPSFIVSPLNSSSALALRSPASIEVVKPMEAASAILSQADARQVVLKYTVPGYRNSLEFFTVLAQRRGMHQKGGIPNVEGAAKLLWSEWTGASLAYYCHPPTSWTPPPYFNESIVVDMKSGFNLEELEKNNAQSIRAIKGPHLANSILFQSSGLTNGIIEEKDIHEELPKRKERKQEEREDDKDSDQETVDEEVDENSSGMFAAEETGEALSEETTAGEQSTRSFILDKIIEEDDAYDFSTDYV

B1: GNL3/nucleostemin (protein, UniProt Q9BVP2 1-549)
chain: T2 sequence
B2: GNL3-WT tagged with FLAG (protein, UniProt Q9BVP2 1-549)
chain: T2 sequence
B3: ORC2 (protein, UniProt Q13416 1-577)
chain: T1 sequence

Columns and labels:
[1] = molecular target: T1, ORC2 (human (endogenous in HEK293, K562 and HeLa)); experiment: co-IP
[2] = molecular target: T1, ORC2 (human (endogenous in HEK293, K562 and HeLa)); experiment: proximity ligation
[3] = molecular target: T2, GNL3/nucleostemin (human (endogenous in K562 and HeLa S3)); experiment: co-IP

Binder | binding [1] | binding [2] | binding [3]
B1 | binds | binds | –
B2 | – | binds | –
B3 | – | – | binds
